## Results of single-concentration screens

Sequences of proteins named here, by UniProt entry; tags and fusion partners are left off. Residues count along the entry.
UniProt A4I591, 1-473: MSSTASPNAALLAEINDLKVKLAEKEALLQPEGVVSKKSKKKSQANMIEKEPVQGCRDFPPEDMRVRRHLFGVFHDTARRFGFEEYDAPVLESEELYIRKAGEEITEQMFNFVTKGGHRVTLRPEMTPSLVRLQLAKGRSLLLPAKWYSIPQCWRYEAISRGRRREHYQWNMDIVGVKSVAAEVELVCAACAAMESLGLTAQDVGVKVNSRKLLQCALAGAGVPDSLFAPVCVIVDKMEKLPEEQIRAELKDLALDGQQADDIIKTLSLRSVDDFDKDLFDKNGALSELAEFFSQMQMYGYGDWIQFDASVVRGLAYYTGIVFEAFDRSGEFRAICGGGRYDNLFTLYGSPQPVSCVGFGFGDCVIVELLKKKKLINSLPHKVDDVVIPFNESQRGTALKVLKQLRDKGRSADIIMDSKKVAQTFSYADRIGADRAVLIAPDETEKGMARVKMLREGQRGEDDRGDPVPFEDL
UniProt Q4DA54, 1-478: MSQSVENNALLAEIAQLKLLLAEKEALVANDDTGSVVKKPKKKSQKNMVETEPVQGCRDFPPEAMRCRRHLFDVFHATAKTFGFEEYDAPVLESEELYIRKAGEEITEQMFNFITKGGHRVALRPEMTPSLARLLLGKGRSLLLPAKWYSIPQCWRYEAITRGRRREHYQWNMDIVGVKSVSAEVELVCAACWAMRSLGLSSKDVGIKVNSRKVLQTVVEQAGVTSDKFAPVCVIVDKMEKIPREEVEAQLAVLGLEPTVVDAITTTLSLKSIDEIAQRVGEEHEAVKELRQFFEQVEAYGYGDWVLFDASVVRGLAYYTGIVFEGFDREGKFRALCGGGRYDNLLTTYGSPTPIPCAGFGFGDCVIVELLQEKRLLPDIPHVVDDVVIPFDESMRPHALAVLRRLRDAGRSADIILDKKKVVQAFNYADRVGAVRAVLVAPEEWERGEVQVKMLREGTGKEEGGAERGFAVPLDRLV

Source: ChEMBL document CHEMBL3988442, “University of Dundee, Small-Polar-MMV Screening Library” (2021).

LiHisRS: 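Enzyme assay of histidyl-tRNA synthetase; the read-out is not stated. Target: Histidine-tRNA ligase, Leishmania infantum (UniProt A4I591). Compounds at 30 µM. Higher reads as stronger inhibition (inferred: compounds with an IC50 in retests scored well above the rest). The assay is labelled LdHisRS but filed under L. infantum. Size under these conditions: about 69,000 compounds, about 410 of them at 50% or above in at least one test.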
TcHisRS: 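Enzyme assay of histidyl-tRNA synthetase; the read-out is not stated. Target: Histidine-tRNA ligase, Trypanosoma cruzi CL Brener (UniProt Q4DA54). Compounds at 30 µM. Direction is inferred from retests: higher values go with stronger inhibition. Size under these conditions: about 69,000 compounds, about 31 of them at 50% or above in at least one test.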

Values are the deposited “Percent Effect”, in %.
How 0% and 100% were set is not recorded. Most values in the screen are low, and negative values occur.
Compounds were drawn at random from those tested, without regard to their results.

| # | compound | LiHisRS | TcHisRS |
|---|---|---|---|
| 1 | `CN(c1cccnn1)[C@@H]1CC[C@@H]2CN(Cc3ccccc3C(=O)O)C[C@@H]21` | 9.859 | 7.576 |
| 2 | `Cc1nc(N2CCCC2)nc2c1CCN(C(=O)C1CCC1)CC2` | 51.28 | 9.756 |
| 3 | `COc1nc(C)c(C(=O)N2CCN(c3ncccc3C)CC2)s1` | 11.48 | 0 |
| 4 | `CCOC[C@]12COC[C@H]1CN(Cc1ccc3c(c1)OCO3)C2` | 0 | -0.5025 |
| 5 | `COc1cccc(CNCc2cccnc2)c1` | 8.511 | 7.895 |
| 6 | `CSc1ccc(NC(=O)Cn2cc(N)cn2)cc1` | 40.71 | 5.357 |
| 7 | `O=C1NC[C@H]2CN(Cc3ccnc4ccccc34)CCN12` | 16.67 | 3.483 |
| 8 | `CC(C)C(C(=O)N1CCN(c2nccs2)CC1)n1cncn1` (stereo not shown) | 18.18 | 9.942 |
| 9 | `CC(c1ccc(F)cc1)N1CCN(Cc2nccn2C)CC1` (stereo not shown) | 10.71 | 9.798 |
| 10 | `CO[C@H]1CN(C(=O)c2cccc(C)n2)CC[C@@]12CCCO2` | 9.396 | 3.143 |
| 11 | `Cc1c(F)cccc1S(=O)(=O)N(C)CC(C)O` (stereo not shown) | 6.667 | -0.6061 |
| 12 | `O=C(Cc1ccccc1)N1CCC2(CC(=O)N(c3cccc(F)c3)C2)C1` (stereo not shown) | 13.21 | 4.237 |
| 13 | `CCC[C@H]1CN(c2cncc(C(=O)N(C)C)n2)C[C@@H]1N(C)C` | 8.85 | 0.8929 |
| 14 | `O=C(C(O)c1ccccc1Cl)N1CCCN(Cc2cccnc2)CC1` (stereo not shown) | 13.22 | 1.681 |
| 15 | `Cc1ccc(O[C@@H]2C[C@H]3CN(C(=O)c4cnccn4)CCN3C2)cc1` | 17.81 | 1.98 |
| 16 | `CC(C)(C)C(=O)NCCC(=O)NC(C)(C)c1ccc2c(c1)OCCO2` | 1.923 | 2.479 |
| 17 | `Cc1noc(C)c1CN1Cc2ccnn2CC(C(=O)NCC2CC2)C1` (stereo not shown) | 8.824 | 0.9852 |
| 18 | `CN(C)CC(=O)N1CCN(c2cc(N3CCCC3CO)ncn2)CC1` (stereo not shown) | 4.145 | 3.867 |
| 19 | `O=C(CCCn1cncn1)N1CCC2(CCCNC2=O)C1` (stereo not shown) | 2.778 | 0 |
| 20 | `Cc1ccnc(NCCNC(=O)C2CC3(CCNCC3)CN2C)c1` (stereo not shown) | 9.917 | -1.681 |
| 21 | `CCOc1ccccc1CC(=O)N1C[C@H](C2CC2)[C@@H](N)C1` | 20.41 | 9 |
| 22 | `Cc1cc(C(=O)CN2C(=O)c3ccccc3CS2(=O)=O)c(C)[nH]1` | 17.81 | -1.97 |
| 23 | `O=C(CSc1nnc(N2CCOCC2)s1)NCc1cccs1` | 17.24 | 10.31 |
| 24 | `Cc1ccc(S(=O)(=O)N2CCN(C)C3(CCC(=O)N(C)CC3)C2)s1` (stereo not shown) | 16 | 12.05 |
| 25 | `Cc1cn2c(n1)C(CNCc1ccc(C)s1)CCC2` (stereo not shown) | 15.79 | 7.263 |
| 26 | `Cc1cc(=O)c(C(=O)Nc2cccc(CCN3CCCC3)c2)c[nH]1` | 21.01 | 0.9804 |
| 27 | `CCCNC(=O)c1cc(Br)cc(S(=O)(=O)N2CCOCC2)c1F` | 31.43 | 9.091 |
| 28 | `N#Cc1c(F)cccc1Nc1cnn(CC(=O)N2CCOCC2)c1` | 34.57 | -1.84 |
| 29 | `Cc1ccc(NCc2ccccc2C#N)cc1-n1cnnn1` | 2.857 | 9.278 |
| 30 | `Cc1cc(C)n(CC(=O)N2CCCCC2CCc2cccs2)c(=O)n1` (stereo not shown) | 20.21 | 10.1 |
| 31 | `CC(=O)Nn1ccc2c(nnc3c(-c4ccc(F)cc4)cnn32)c1=O` | -8.434 | -56.22 |
| 32 | `CCc1cnc(C)nc1NCCN1CCCCCC1` | 25.47 | 13.39 |
| 33 | `Cc1cccc(Cc2cc(C)nc(C3CCCNC3)c2)c1` (stereo not shown) | 20 | 11.88 |
| 34 | `CN1CCC(NC(=O)Nc2cnn(-c3ccccc3Cl)c2)CC1` | 17.86 | 1.754 |
| 35 | `Cc1cccc(N2CCN(C(=O)CNCCn3cc(C)cn3)CC2)c1` | 33.33 | 0.5291 |
| 36 | `CCCS(=O)(=O)N1C[C@@H]2CN(Cc3cccs3)CCO[C@@H]2C1` | 11.97 | 0 |
| 37 | `Cc1cnn(CC2CCCN2Cc2cc(C)on2)c1` (stereo not shown) | 5.505 | 2.353 |
| 38 | `COC(=O)NCC(=O)NC(c1ccc(Cl)cc1)C(F)(F)F` (stereo not shown) | -1.587 | -1.01 |
| 39 | `Cc1cc(S(=O)(=O)N2CCCc3cc(F)cc(F)c32)sc1C(=O)O` | -6.796 | -1.245 |
| 40 | `CC[C@H](CO)NC(=O)c1coc(COc2cccc(F)c2F)n1` | 11.48 | -3.03 |
| 41 | `CCN(Cc1cccc(C)c1)Cn1nc(C)c2c(C)onc2c1=O` | 14.04 | 4.871 |
| 42 | `COCC(=O)N1CCN(C)C(=O)C(Cc2ccccc2-c2cccs2)C1` (stereo not shown) | 9.929 | 6.391 |
| 43 | `Cc1c(C(C)NC2CCOCC2)cnn1-c1ccc(F)cc1F` (stereo not shown) | 13.16 | -0.5587 |
| 44 | `COc1cc(C)c(CNC(C)c2csc(C)n2)cc1OC` (stereo not shown) | 18.25 | 10.59 |
| 45 | `Cn1cc(NC(=O)N2CCC2c2ccccc2)ccc1=O` (stereo not shown) | 108.3 | 22.58 |
| 46 | `O=C(NCCCNc1ccc(C(F)(F)F)cn1)c1ccc2c(c1)OCO2` | 20.18 | 5.882 |
| 47 | `COCCOCC(=O)NC(C#N)c1cccc(Cl)c1Cl` (stereo not shown) | 8.511 | -37.57 |
| 48 | `Cn1cc(C(=O)NCc2ccc(N3CCNC(=O)C3)c(F)c2)cn1` | 14.52 | 8.247 |
| 49 | `CN(C)c1ccc(C(=O)Nc2ccn(CCc3ccncc3)n2)cc1` | 17.7 | -2.679 |
| 50 | `CC(NC(=O)CCc1cccs1)c1nnc2n1CCCCC2` (stereo not shown) | 3.571 | -1.744 |
| 51 | `CC1(C)CN=C(N2CCN(CC3CCCCO3)CC2)S1` (stereo not shown) | 4.082 | 1 |
| 52 | `CC(=O)N1CCCC(C(=O)c2cnn(-c3ccc(F)cc3)c2N)C1` (stereo not shown) | 14.49 | 4.545 |

Some entries from above, unchanged:

{"compound": "COc1cccc(CNCc2cccnc2)c1", "LiHisRS": 8.511, "TcHisRS": 7.895}
{"compound": "O=C(CCCn1cncn1)N1CCC2(CCCNC2=O)C1", "stereo": "stereo not shown", "LiHisRS": 2.778, "TcHisRS": 0}
{"compound": "O=C(NCCCNc1ccc(C(F)(F)F)cn1)c1ccc2c(c1)OCO2", "LiHisRS": 20.18, "TcHisRS": 5.882}